# PubChem BioAssay AID587 (National Center for Advancing Translational Sciences (NCATS), 2007)
# Screen size: about 59,000 compounds; about 35 (0.06%) were called active. Inconclusive means that the source gave no clear call. Such entries were picked first, then a sample of the others. No stated cut-off is given here; in the data, active means max dye-equivalent concentration above about 10 nM; inconclusive means between about 1.1 nM and that limit; inactive means weaker than that.
# Test: qHTS Assay for Spectroscopic Profiling in Texas Red Spectral Region
# Settings: Compound fluorescence, Texas Red channel, 547/618 nm; stronger effect = higher value
# Summary of the method: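 Spectral interference profiling: each compound concentration's relative fluorescence, read with a 547 nm excitation and 618 nm emission filter pair, was normalized to a per-plate Texas Red standard curve.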
row,SMILES,max dye-equivalent concentration
1,O=C(OCC(=O)N1CCN(C(=O)c2ccco2)CC1)c1sc2ccccc2c1Cl,inconclusive: 1.3 nM
2,CC[C@@H]1[C@H]2CCCCN3[C@@H]2[C@@H](C[C@H]3[C@@H]2C[C@H](C)C(=O)O2)[C@@H]2[C@H]1OC(=O)[C@H]2C,inactive
3,O=C(c1noc2c1CCCCC2)N1CCOCC1,inconclusive: 1.5 nM
4,COc1ccc(-n2c(=O)c(-c3cccs3)nc3cncnc32)cc1,inactive
5,Cc1cc(C)c2oc(=O)cc(CN3CCOCC3)c2c1,inconclusive: 2.6 nM
6,CCN(CC)CCCN(C(C)=O)c1nc(-c2cc(OC)ccc2OC)cs1,inconclusive: 1.5 nM
7,CC(C)C1Nc2ccc(S(N)(=O)=O)cc2C2C=CCC21 (stereo unspecified),inconclusive: 1.1 nM
8,COc1ccccc1CNC(=O)CSc1nc2nc(C)cc(C)n2n1,inconclusive: 1.5 nM
9,CN(C)Cc1cc(C(=O)O)cc(CN(C)C)c1O,inconclusive: 1.1 nM
10,COc1ccc2cc(CN(Cc3ccco3)C(c3nnnn3C3CCCCC3)C(C)C)c(=O)[nH]c2c1 (stereo unspecified),inconclusive: 1.6 nM
11,CCC1C2CN(C(C)=O)CC=C2C(C#N)=C(N)C1(C#N)C#N (stereo unspecified),inactive
12,CNC(=O)[C@@H]1O[C@@H](n2cnc3c(NCc4cccc(I)c4)ncnc32)[C@H](O)[C@@H]1O,inconclusive: 1.2 nM
13,Cn1c(=O)[nH]c(=O)c2c1nc(OC(=O)c1ccccc1)n2CC(O)COc1ccc(F)cc1 (stereo unspecified),inconclusive: 2.1 nM
14,CCOC(=O)c1cccc(NC(=O)CCc2nc(-c3ccc(C)cc3)no2)c1,inconclusive: 1.2 nM
15,CC(CN1CCOCC1)(NS(=O)(=O)c1ccccc1)c1ccccc1 (stereo unspecified),inconclusive: 2.1 nM
16,Cc1cccc(Cn2c(NCC(C)O)nc3c2c(=O)n(C)c(=O)n3C)c1 (stereo unspecified),inconclusive: 1.4 nM
17,O=C(CN1CCOCC1)n1c2ccccc2c2ccccc21,inconclusive: 1.3 nM
18,Cc1ccc2cc(CN(Cc3cccs3)Cc3nnnn3CC3CCCO3)c(=O)[nH]c2c1 (stereo unspecified),inconclusive: 1.3 nM
19,Cc1nc2ccc(Cl)cc2nc(C)/c1=N\O,inconclusive: 2 nM
20,CCc1ccc(OCC(=O)Nc2ncc3c(n2)CC(C)(C)CC3=O)cc1,inconclusive: 1.1 nM
21,O=C(O)c1cccnc1Nc1cccc(C(F)(F)F)c1,inconclusive: 1.1 nM
22,NC[C@@H](O)CSCc1ccc(Cl)cc1,inactive

row,SMILES,max dye-equivalent concentration
1,Cc1ccc2nc(N3CCC(C(=O)O)CC3)nc(-c3ccccc3)c2c1,inconclusive: 1.4 nM
2,CCOC(=O)c1c(C)c(C(=O)NCc2cccs2)c(C)n1C,inconclusive: 1.3 nM
3,COC(=O)c1ccc(=O)n(-c2ccc(OC)cc2)c1,inconclusive: 2 nM
4,COc1ccc(OC)c(C(c2nnnn2Cc2ccccc2)N2CCC(C(N)=O)CC2)c1 (stereo unspecified),inconclusive: 1.3 nM
5,COCc1nnc(NC(=O)c2ccco2)s1,inconclusive: 1.5 nM
6,O=C(CSCc1ccccc1)Nc1ccc2c(c1)OCO2,inconclusive: 2.1 nM
7,COCC(=O)N(Cc1cc2ccccc2[nH]c1=O)c1ccccc1OC,inconclusive: 1.1 nM
8,Cc1cc(C(=O)CSc2nnc(-c3cccc(F)c3)n2N)c(C)n1Cc1ccc2c(c1)OCO2,inconclusive: 3 nM
9,CCCCc1nc2ccccc2n1Cc1nnc2n1-c1ccccc1SC2,inconclusive: 1.7 nM
10,Cc1ccccc1-n1c(=O)cc(N2CCC3(CC2)OCCO3)[nH]c1=O,inactive
11,COc1cc(OC)cc(C(=O)NC2CC3CCC(C2)N3Cc2ccco2)c1 (stereo unspecified),inconclusive: 1.4 nM
12,O=C(NCc1ccc2c(c1)OCO2)c1nn(-c2ccccc2)c(=O)c2ccccc12,inconclusive: 1.1 nM
13,COCC(=O)N(CCc1ccc(OC)c(OC)c1)Cc1nc2ccccc2c(=O)[nH]1,inconclusive: 1.5 nM
14,CCCNC(=O)Nc1cc(C)on1,inconclusive: 1.3 nM
15,COc1ccccc1CNC(=O)C1CCN(Cc2nc(-c3cccc(Cl)c3)oc2C)CC1,inconclusive: 1.1 nM
16,Cc1nc(=O)c(-c2ccccc2)c(C)n1-c1ccccc1O,inconclusive: 1.1 nM
17,CCOC(=O)Cc1csc(SCc2nc3ccccc3c(=O)[nH]2)n1,inconclusive: 1.1 nM
18,Cc1noc(C)c1-c1nc(N(C)C)c2ccccc2n1,inactive
19,COc1cccc(Cn2c(=O)c(-c3cccs3)nc3cnc(N4CCNCC4)nc32)c1,inactive
20,CN(C)C(=O)CSc1nnc2sc3ccccc3n12,inconclusive: 1.7 nM
21,O=C(N/N=C\c1ccc2c(c1)CCC2)c1ccccc1O,inactive
22,COCCn1c(=O)c(-c2cccc(C#N)c2)nc2cnc(N3CCOCC3)nc21,inactive

# Exported with tabs: part of the list above
row	SMILES	max dye-equivalent concentration
2	CC[C@@H]1[C@H]2CCCCN3[C@@H]2[C@@H](C[C@H]3[C@@H]2C[C@H](C)C(=O)O2)[C@@H]2[C@H]1OC(=O)[C@H]2C	inactive
2	CCOC(=O)c1c(C)c(C(=O)NCc2cccs2)c(C)n1C	inconclusive: 1.3 nM
13	COCC(=O)N(CCc1ccc(OC)c(OC)c1)Cc1nc2ccccc2c(=O)[nH]1	inconclusive: 1.5 nM

# Carrying on.

row,SMILES,max dye-equivalent concentration
1,Cc1nn2cnc3sc4c(c3c2nc1=O)CCCC4,inactive
2,CCCCCn1c(N)c(C#N)c2nc3ccccc3nc21,inconclusive: 1.3 nM
3,Cc1nc2ccc(-c3ccccc3)cc2o1,inconclusive: 1.8 nM
4,Cc1ccc(S(=O)(=O)Nc2cccc(-c3cn4ccsc4n3)c2)cc1,inconclusive: 1.2 nM
5,COc1cc(OC)c(N2CC34C=CC(O3)C(C(=O)O)C4C2=O)cc1Cl (stereo unspecified),inconclusive: 2.3 nM
6,Cc1cc(C)n(CC(=O)NC2CCCCC2)n1,inconclusive: 1.4 nM
7,COc1cc(C2C(C#N)=C(N)Oc3n[nH]c(-c4ccncc4)c32)cc(OC)c1OC (stereo unspecified),inconclusive: 1.6 nM
8,O=C(c1cc(-c2cccs2)on1)N1CCc2ccccc2C1,inconclusive: 1.7 nM
9,CO[C@@H]1/C=C\O[C@]2(C)Oc3c(C)c(O)c4c(O)c(c(CN5CCN(C)CC5)c(O)c4c3C2=O)NC(=O)/C(C)=C\C=C[C@@H](C)[C@@H](O)[C@H](C)[C@@H](O)[C@H](C)[C@H](OC(C)=O)[C@@H]1C,inactive
10,O=C(C1CCN(C2CC(=O)N(c3cccc(Cl)c3)C2=O)CC1)N1CCCCCC1 (stereo unspecified),inconclusive: 1.4 nM
11,Cc1ccccc1OCC(=O)OC(C)CN1CCN(C)CC1 (stereo unspecified),inconclusive: 1.4 nM
12,NC(=O)C1(N2CCCCC2)CCN(c2nc(-c3ccccc3)cs2)CC1,inconclusive: 1.2 nM
13,Cc1cc(C)n2c(SCC(=O)Nc3cc(C)on3)nnc2n1,inconclusive: 1.1 nM
14,COc1cccc(Cn2c(=O)c(-c3ccc(Cl)cc3)nc3cnc(OC)nc32)c1,inactive
15,COCCN(C(=O)CCC(=O)Nc1ccccn1)C(C(=O)NC1CCCC1)c1ccc(OC)cc1 (stereo unspecified),inconclusive: 1.4 nM
16,CCCCNC1C(CC)C(CCC)C(C#N)(C#N)C1(C#N)C#N (stereo unspecified),inconclusive: 1.2 nM
17,CC1(C)C=Cc2c(c3ccccc3[nH]c2=O)O1,inconclusive: 1.8 nM
18,CCNc1ncc2nc(-c3cccc(C#N)c3)c(=O)n(Cc3cccc(OC)c3)c2n1,inactive
19,Cc1ccc(-n2nc(C)c3c2OC(N)=C(C#N)C3c2ccc(F)cc2)cc1 (stereo unspecified),inconclusive: 1.2 nM
20,Cc1cc2c(cc1S(N)(=O)=O)S(=O)(=O)CCC2,inconclusive: 1.3 nM
21,CCc1nnc(NC(=O)CCC(=O)N2CCCC2)s1,inconclusive: 1.5 nM
22,COc1ccc2[nH]c(=O)c(C(c3nnnn3CC3CCCO3)N3CCc4ccccc4C3)cc2c1 (stereo unspecified),inconclusive: 1.3 nM

# Among those listed so far, these contain two or more sulfur atoms.
row,SMILES,max dye-equivalent concentration
17,CCOC(=O)Cc1csc(SCc2nc3ccccc3c(=O)[nH]2)n1,inconclusive: 1.1 nM
20,CN(C)C(=O)CSc1nnc2sc3ccccc3n12,inconclusive: 1.7 nM
4,Cc1ccc(S(=O)(=O)Nc2cccc(-c3cn4ccsc4n3)c2)cc1,inconclusive: 1.2 nM
20,Cc1cc2c(cc1S(N)(=O)=O)S(=O)(=O)CCC2,inconclusive: 1.3 nM

# (next part)

row,SMILES,max dye-equivalent concentration
1,CC(=O)N1CCN(C(=O)CCc2nc3sc4c(c3c(=O)[nH]2)CCCC4)CC1,inconclusive: 1.5 nM
2,N#CC1=C(N)Oc2c(oc(CO)cc2=O)C1c1cccs1 (stereo unspecified),inconclusive: 1.1 nM
3,O=C(CSc1nc2ccccc2c(=O)n1Cc1ccco1)N1CCN(c2ccccc2)CC1,inconclusive: 1.5 nM
4,O=C(c1cccc(F)c1)N1CCCC(C(=O)N2CCCC2)C1 (stereo unspecified),inconclusive: 1.1 nM
5,CCCC(=O)Nc1cccc2c1CCCC2,inconclusive: 2.4 nM
6,Cc1ccc(C(=O)N2CCN(c3ccc(Cl)cc3)CC2)cc1,inconclusive: 1.1 nM
7,COCCOC(=O)c1c(C)oc2ccc(O)c(CN3CCC(C)CC3)c12,inconclusive: 1.2 nM
8,CCOc1ncccc1C(=O)OCC(=O)N1CC(=O)Nc2ccccc21,inconclusive: 1.5 nM
9,CCOCCCNC(=O)CN1CCN(c2ccc(F)cc2)CC1,inconclusive: 1.7 nM
10,CCN1C(=O)c2ccc(C(=O)Nc3nccs3)cc2C1=O,inconclusive: 1.1 nM
11,O=C(O)C1C2C=CC(O2)C1C(=O)NCc1ccc2c(c1)OCO2 (stereo unspecified),inconclusive: 1.3 nM
12,COc1ccc(-c2nc(C#N)c(NCC3CCCO3)o2)cc1OC (stereo unspecified),inconclusive: 1.2 nM
13,CCOC(=O)Cc1c(C)c2c(C)[nH]nc2oc1=O,inconclusive: 1.2 nM
14,CC(C)CCNC(=O)CN(C)S(=O)(=O)c1cccc2nsnc12,inconclusive: 1.5 nM
15,NC(=O)c1nn(-c2ccccc2)nc1N,inconclusive: 1.3 nM
16,COc1ccc(-c2nc3cnc(Nc4cccc(OC)c4)nc3n(C[C@H]3CCCO3)c2=O)cc1,inactive
17,Cn1c(=O)oc2cc(S(=O)(=O)NCCC(=O)NC3CCCc4ccccc43)ccc21 (stereo unspecified),inconclusive: 1.1 nM
18,Cn1c(SCc2c(F)cccc2Cl)nnc1-c1cnccn1,inconclusive: 1.2 nM
19,CCNc1ncc2nc(-c3cn(C)c4ccccc34)c(=O)n(Cc3cccc(OC)c3)c2n1,inactive
20,CCc1nnc(NC(=O)CSc2nnc(C3CCCCC3)n2-c2ccccc2)s1,inconclusive: 2.3 nM
